Assay results taken from publication PMC4778064.
Results are given in words; binding and its absence hold for the method and conditions named. Binding seen in cells or lysates may run through a third protein. A result given as binding can be weak or reduced; the word gives no strength.

Amino acid sequences for entries named in this document (tags omitted).
UniProt D3Z7H4: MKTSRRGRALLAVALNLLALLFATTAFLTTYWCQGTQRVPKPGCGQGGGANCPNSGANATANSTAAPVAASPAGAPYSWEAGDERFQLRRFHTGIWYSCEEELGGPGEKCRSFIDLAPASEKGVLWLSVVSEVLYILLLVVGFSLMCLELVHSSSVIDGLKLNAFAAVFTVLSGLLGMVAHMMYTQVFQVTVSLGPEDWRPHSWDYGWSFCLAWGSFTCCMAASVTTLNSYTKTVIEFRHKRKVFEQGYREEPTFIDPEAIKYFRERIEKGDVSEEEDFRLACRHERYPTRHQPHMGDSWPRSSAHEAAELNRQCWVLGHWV

Target: Flag–GSG1L (Germ Cell-Specific Gene 1-Like) (mouse) (UniProt D3Z7H4)
Test: co-IP; HEK293T cells co-expressing HA–GluA1 or HA–GluK1 with Flag–GSG1L; lysis buffer 25 mM Tris pH 7.5, 1% Triton X-100, 150 mM NaCl, 5% glycerol, 1 mM EDTA; anti-Flag M2 antibody and Protein G beads overnight at 4 °C; HA-tagged subunits probed with anti-HA

## HA–GluA1 (AMPAR GluA1 subunit) (from UniProt P19490-2) (receptor)
  binding: binds
